Data: patent US20150045248A1
These are yes or no findings as the source states them, for the method shown. In cells and extracts the contact can be indirect. Some entries that bind do so weakly or less than the wild type. Blank lines part the entries; values can stand above or below the binder they belong to.

Protein sequences, listed by entry. Tags and fused reporters are not part of them. Lines headed by an entry give the natural chain unless they say otherwise; changes in a name come on top.
UniProt Q13148: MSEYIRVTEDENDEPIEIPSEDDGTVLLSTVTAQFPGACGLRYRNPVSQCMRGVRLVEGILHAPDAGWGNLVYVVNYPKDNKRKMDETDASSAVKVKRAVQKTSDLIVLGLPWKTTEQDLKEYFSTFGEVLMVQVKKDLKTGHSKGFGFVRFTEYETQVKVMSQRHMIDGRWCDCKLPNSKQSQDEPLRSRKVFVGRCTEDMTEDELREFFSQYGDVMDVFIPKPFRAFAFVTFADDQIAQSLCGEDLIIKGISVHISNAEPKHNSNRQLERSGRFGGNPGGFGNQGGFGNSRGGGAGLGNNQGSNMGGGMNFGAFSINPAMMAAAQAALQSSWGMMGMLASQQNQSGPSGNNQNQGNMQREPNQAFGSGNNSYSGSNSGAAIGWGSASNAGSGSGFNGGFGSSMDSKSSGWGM

Target: DAP-tagged TDP-43 (wild type TAR DNA-binding protein 43) (human) (UniProt Q13148)
Assay: reciprocal (interchange) co-immunoprecipitation with anti-Aralar 1 and anti-Aralar 2 antibodies (FIG. 13)

binding: binds
B1: Aralar 2 (SLC25A3; citrin) (protein, UniProt Q9UJS0 2-675, looked up)
chain: AAAKVALTKRADPAELRTIFLKYASIEKNGEFFMSPNDFVTRYLNIFGESQPNPKTVELLSGVVDQTKDGLISFQEFVAFESVLCAPDALFMVAFQLFDKAGKGEVTFEDVKQVFGQTTIHQHIPFNWDSEFVQLHFGKERKRHLTYAEFTQFLLEIQLEHAKQAFVQRDNARTGRVTAIDFRDIMVTIRPHVLTPFVEECLVAAAGGTTSHQVSFSYFNGFNSLLNNMELIRKIYSTLAGTRKDVEVTKEEFVLAAQKFGQVTPMEVDILFQLADLYEPRGRMTLADIERIAPLEEGTLPFNLAEAQRQKASGDSARPVLLQVAESAYRFGLGSVAGAVGATAVYPIDLVKTRMQNQRSTGSFVGELMYKNSFDCFKKVLRYEGFFGLYRGLLPQLLGVAPEKAIKLTVNDFVRDKFMHKDGSVPLAAEILAGGCAGGSQVIFTNPLEIVKIRLQVAGEITTGPRVSALSVVRDLGFFGIYKGAKACFLRDIPFSAIYFPCYAHVKASFANEDGQVSPGSLLLAGAIAGMPAASLVTPADVIKTRLQVAARAGQTTYSGVIDCFRKILREEGPKALWKGAGARVFRSSPQFGVTLLTYELLQRWFYIDFGGVKPMGSEPVPKSRINLPAPNPDHVGGYKLAVATFAGIENKFGLYLPLFKPSVSTSKAIGGGP

binding: binds
B2: Aralar 1 (SLC25A12) (protein, UniProt O75746 2-678, looked up)
chain: AVKVQTTKRGDPHELRNIFLQYASTEVDGERYMTPEDFVQRYLGLYNDPNSNPKIVQLLAGVADQTKDGLISYQEFLAFESVLCAPDSMFIVAFQLFDKSGNGEVTFENVKEIFGQTIIHHHIPFNWDCEFIRLHFGHNRKKHLNYTEFTQFLQELQLEHARQAFALKDKSKSGMISGLDFSDIMVTIRSHMLTPFVEENLVSAAGGSISHQVSFSYFNAFNSLLNNMELVRKIYSTLAGTRKDVEVTKEEFAQSAIRYGQVTPLEIDILYQLADLYNASGRLTLADIERIAPLAEGALPYNLAELQRQQSPGLGRPIWLQIAESAYRFTLGSVAGAVGATAVYPIDLVKTRMQNQRGSGSVVGELMYKNSFDCFKKVLRYEGFFGLYRGLIPQLIGVAPEKAIKLTVNDFVRDKFTRRDGSVPLPAEVLAGGCAGGSQVIFTNPLEIVKIRLQVAGEITTGPRVSALNVLRDLGIFGLYKGAKACFLRDIPFSAIYFPVYAHCKLLLADENGHVGGLNLLAAGAMAGVPAASLVTPADVIKTRLQVAARAGQTTYSGVIDCFRKILREEGPSAFWKGTAARVFRSSPQFGVTLVTYELLQRWFYIDFGGLKPAGSEPTPKSRIADLPPANPDHIGGYRLATATFAGIENKFGLYLPKFKSPSVAVVQPKAAVAATQ
